# Measured values from PubChem BioAssay AID504467 (National Center for Advancing Translational Sciences (NCATS), 2011).
# In all, about 330,000 compounds went through this assay and about 7,700 (2.3%) were called active. This list was built around the results that the source calls inconclusive (neither active nor inactive); the mix of calls is not that of the screen. Calls come from the whole dose curve; as a rule, active = well fitted inhibition curve with a large enough effect; inconclusive = small, poorly fitted or top-dose-only effect, or effect the other way; inactive = flat fitted curve, though single readings scatter. Potencies beside an inconclusive call are fits to weak or partial responses and may not hold up.
# Experiment: qHTS screen for small molecules that inhibit ELG1-dependent DNA repair in human embryonic kidney (HEK293T) cells expressing luciferase-tagged ELG1; note: nearly all actives have a fitted effect of over 55% in size
# Details: HEK293T ELG1-luciferase reporter, luminescence, 16 h, DNA damage induced by 5-fluorouridine; series mostly up to 46.1 µM
# Method in brief: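 Quantitative HTS, concentration-response format. 2,000 cells/well co-treated with 5-fluorouridine and compound, 16 hr in 5% CO2 at 37 °C; ONE-Glo luminescence read after 30 min.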
# Potency is the fitted concentration of half-maximal effect.
row,Compound,Potency
1,O=C(NCCc1c[nH]c2ccccc12)c1cc(Cl)c2c(c1)OCO2,"inconclusive: 20.6 µM [activator, partial curve]"
2,O=C(COC(=O)/C=C/c1cccc(Br)c1)NC1CCCC1,inactive
3,O=C(CSc1ccccn1)Nc1nonc1[N+](=O)[O-],"inconclusive: 29.1 µM [inhibitor, single point]"
4,Cc1c(Cl)cccc1NC(=O)Cn1cc(C(F)(F)F)cc(Cl)c1=O,inactive
5,COc1ccccc1-c1cc(C(=O)N/N=C/c2ccc(C)s2)c2ccccc2n1,active: 7.31 µM
6,COc1ccc(NC(=O)c2ccc(-c3nn(C)c(=O)c4ccccc34)cc2)cc1,inactive
7,C=CCn1c(=N)c(C#N)cc2c(=O)n3ccccc3nc21,inactive
8,CC(C)OC(=O)NC(c1ccccc1)C(Cl)(Cl)Cl (centres undefined),inactive
9,COc1ccc(-n2nc(C(=O)NCC(=O)N(C)Cc3ccccc3)c3ccccc3c2=O)c(OC)c1,inactive
10,Cc1ccccc1N1C(=O)C(Cl)=C(N2CCN(c3ccccc3)CC2)C1=O,"inconclusive: 25.9 µM [inhibitor, single point]"
11,COc1cc(OC)c(C(=O)OCCCOC(=O)c2cc(OC)c(OC)cc2OC)cc1OC,active: 11.6 µM
12,CCOc1ccc(CN(C(=O)c2cc3ccccc3oc2=O)C2CCS(=O)(=O)C2)cc1 (centres undefined),"inconclusive: 20.6 µM [activator, partial curve]"
13,Cc1cc(Nc2ccccc2)n(-c2ccc(Br)cc2)n1,inactive
14,Cc1cccc(Nc2nc(N3CCCC3)nc(N3CCCC3)n2)c1,inactive
15,O=C(Nc1ccc(S(=O)(=O)Nc2cnc3ccccc3n2)cc1)c1ccccc1Br,inactive
16,CCN(CC)C(=O)C(C)OC(=O)c1ccc(O)cc1 (centres undefined),"inconclusive: 23.1 µM [activator, partial curve, poor fit]"
17,COC(=O)c1cccc(NC(=O)CSCc2ccccc2)c1,"inconclusive: 16.4 µM [activator, single point]"
18,O=C(Cc1cccs1)N1CCCC(c2nc3c(nnn3Cc3cccc(Cl)c3)c(=O)[nH]2)C1 (centres undefined),"inconclusive: 29.1 µM [inhibitor, single point]"
19,O=C(Nc1c(-c2cccs2)nc2ccccn12)c1ccc2ccccc2c1,"inconclusive: 20.6 µM [inhibitor, partial curve, poor fit]"
20,CN(C(=O)Cn1c(=O)oc2ccccc21)C1CCCCC1,"inconclusive: 0.0041 µM [activator, full curve, poor fit]"
21,CCOC(=O)c1ccc(N2Cc3ccccc3C2=NC(=O)c2cccs2)cc1,"inconclusive: 9.2 µM [activator, partial curve]"
22,CCOC(=O)N1CCC(N2CCCC(C(=O)c3ccc4cc(OC)ccc4c3)C2)CC1 (centres undefined),active: 23.1 µM
23,CCn1c(O)c(C2=c3ccccc3=NC2=O)c2cc(Br)ccc21,"inconclusive: 20.6 µM [activator, single point]"
24,Cc1ccccc1-c1nc(CN(C)C(C)c2ccon2)c(C)o1 (centres undefined),inactive
25,COc1ccc(CNC(=O)CSCc2ccccc2Cl)cc1,"inconclusive: 18.4 µM [activator, partial curve]"

row,Compound,Potency
1,S=C1N(c2ccccc2)C(c2cccc3ccccc23)N2CCCN12 (centres undefined),"inconclusive: 20.6 µM [inhibitor, partial curve, poor fit]"
2,COc1cc2oc(=O)ccc2cc1-c1c(OC)ccc2ccc(=O)oc12,inactive
3,COc1cccc(NC(=O)Nc2cccs2)c1,"inconclusive: 11.6 µM [activator, partial curve]"
4,CC#CCCCC(=O)Nc1ccccc1C(=O)O,"inconclusive: 20.6 µM [activator, single point]"
5,O=C(c1ccccc1)N1CCN(c2nc3ccc([N+](=O)[O-])cc3s2)CC1,inactive
6,Cn1cc([N+](=O)[O-])c(C(=O)Nc2ccc(Br)cn2)n1,inactive
7,Cc1ccc(NC(=O)CSC2=C(C#N)C(c3ccco3)C3=C(CC(C)(C)CC3=O)N2)cc1 (centres undefined),"inconclusive: 25.9 µM [inhibitor, partial curve, poor fit]"
8,Cc1ccc(S(=O)(=O)N2CCN(C(=O)c3ccccc3-c3nc4ccccc4s3)CC2)c(C)c1,"inconclusive: 1.64 µM [inhibitor, single point]"
9,Cn1nc(C(=O)NCc2ccccc2)c2ccccc2c1=O,"inconclusive: 14.6 µM [activator, partial curve, poor fit]"
10,COc1cc(/C=N\NC(=O)c2ccc(C)nc2)ccc1OC(=O)c1cccc(F)c1,inactive
11,O=C(O)c1ccc2c(c1)S(=O)(=O)c1ccccc1C2=O,inactive
12,Cc1ccccc1SCC(=O)Nc1cc(C(F)(F)F)ccc1N1CCOCC1,"inconclusive: 8.2 µM [inhibitor, partial curve]"
13,CCOC(=O)c1cc(C)n(Cc2ccc(OCC)c(OC)c2)c1C,"inconclusive: 20.6 µM [inhibitor, single point]"
14,COc1cc(SC)ccc1C(=O)OCC(=O)NCC(C)C,"inconclusive: 23.1 µM [activator, partial curve, poor fit]"
15,COc1ccc(NC(=O)COC(=O)CCc2ccc(S(=O)(=O)N3CCOCC3)cc2)c(OC)c1,"inconclusive: 29.1 µM [activator, single point]"
16,COc1ccc2cc(CN(CC3CCCO3)C(=O)Nc3ccccc3OC)c(=O)[nH]c2c1 (centres undefined),active: 7.3 µM
17,CN1C(=O)/C(=C/c2ccc(OC(=O)c3ccco3)cc2)SC1=S,inactive
18,Cc1cccc(NC(=O)Nc2cccc(C#N)c2)n1,"inconclusive: 29.1 µM [activator, single point]"
19,O=C1c2ccccc2C(=O)C1(CO)c1ccc(OC(F)F)cc1,"inconclusive: 2.59 µM [activator, partial curve]"
20,CCN(CC)S(=O)(=O)c1ccc(C(=O)Nc2nnc(COC)o2)cc1,inactive
21,COc1cccc(/C=N/NC(=O)C(=O)N2CCCC2)c1OC,inactive
22,Cn1c(CCNC(=O)c2ccco2)nc2cc(NC(=O)C3CCCCC3)ccc21,"inconclusive: 29.1 µM [inhibitor, single point]"
23,O=C(Nc1ccc2c3c(cccc13)CC2)c1ccco1,"inconclusive: 13 µM [activator, partial curve]"
24,Cn1c(SCC(=O)NCc2ccccc2)nc2c([nH]c3ccccc32)c1=O,inactive
25,Cc1cc(C)n(-c2nc(SCCN(C)C)c3c4c(sc3n2)COC(C)(C)C4)n1,active: 18.4 µM

# 3 entries drawn at random from those above, as already listed:
row,Compound,Potency
15,O=C(Nc1ccc(S(=O)(=O)Nc2cnc3ccccc3n2)cc1)c1ccccc1Br,inactive
8,Cc1ccc(S(=O)(=O)N2CCN(C(=O)c3ccccc3-c3nc4ccccc4s3)CC2)c(C)c1,"inconclusive: 1.64 µM [inhibitor, single point]"
16,CCN(CC)C(=O)C(C)OC(=O)c1ccc(O)cc1 (centres undefined),"inconclusive: 23.1 µM [activator, partial curve, poor fit]"

# Further records

row,Compound,Potency
1,Cc1ccc(C2CCN(C(=S)NC3CCCCC3)C2)cc1 (centres undefined),"inconclusive: 23.1 µM [inhibitor, single point]"
2,CCCNC(=O)COc1ccc(S(=O)(=O)Nc2ccc(C)cc2)cc1,inactive
3,CCOc1cccc(C(=O)Nc2cccc(NC(=O)c3ccco3)c2)c1,"inconclusive: 29.1 µM [inhibitor, single point]"
4,CC(=O)Nc1cccc(C(=O)/C=C/c2ccco2)c1,"inconclusive: 25.9 µM [activator, single point]"
5,CC(C)n1c(NCCc2ccccc2)nc2c1c(=O)n(C)c(=O)n2C,active: 18.4 µM
6,O=C(CN1C(=O)NC2(CCCC2)C1=O)Nc1ccc(Cl)c(C(F)(F)F)c1,"inconclusive: 29.1 µM [activator, partial curve, poor fit]"
7,CN(C)CCCNC(=O)C[C@H]1C[C@H](C(=O)N2CCOCC2)[C@@]2(C)c3[nH]c4ccc(Cl)cc4c3CCN2C1=O,inactive
8,O=C(Nc1cccc(-n2cccn2)c1)C1CCCN(Cc2cccc(F)c2F)C1 (centres undefined),"inconclusive: 32.6 µM [inhibitor, partial curve, poor fit]"
9,CC1=C(C(=O)N(C)Cc2ccccc2)C2(CCC(C)CC2)OC1=O (centres undefined),"inconclusive: 29.1 µM [inhibitor, single point]"
10,CSCCC(NS(=O)(=O)c1ccc2c(c1)oc(=O)n2C)C(=O)NCc1cccs1 (centres undefined),"inconclusive: 29.1 µM [activator, single point]"
11,Cn1/c(=N/N=C/c2ccc(N3CCOCC3)cc2)sc2ccccc21,"inconclusive: 23.1 µM [activator, partial curve]"
12,CCN(CC)S(=O)(=O)c1ccc(NC(=O)COc2c(OC)cccc2OC)cc1,"inconclusive: 20.6 µM [inhibitor, single point]"
13,COc1ccc(NC(=O)CCn2c(=S)[nH]c3ccccc3c2=O)cc1,"inconclusive: 20.6 µM [activator, single point]"
14,CCc1cc(=O)[nH]c(SCC(=O)NCC2CCCO2)n1 (centres undefined),inactive
15,O=C(COc1ccc(Cl)cc1)OCC(=O)N1CCCc2ccccc21,inactive
16,N#Cc1ccc(OCC(=O)N/N=C/C2CC=CCC2)cc1 (centres undefined),inactive
17,CCCCc1c(O)nc2sccn2c1=O,inactive
18,COc1ccc(CCNC(=O)CN2C(=O)NC(C)(c3ccc([N+](=O)[O-])cc3)C2=O)cc1 (centres undefined),inactive
19,CCOC(=O)CSc1nc(C)cc(C)n1,"inconclusive: 20.6 µM [activator, single point]"
20,CCOC(=O)c1c(C)[nH]c(C(=O)NCc2ccco2)c1C,"inconclusive: 10.3 µM [activator, partial curve]"
21,Cc1nn(C)c(C)c1S(=O)(=O)N(CC(=O)NCCN1CCOCC1)c1ccc(C(C)C)cc1,inactive
22,O=C(/C=C/c1ccc(S(=O)(=O)N2CCOCC2)cc1)N(CCO)Cc1ccccc1,"inconclusive: 25.9 µM [inhibitor, single point]"
23,c1ccc(-c2c(-c3ccccc3)n(Cc3ccco3)c3ncnc(NCCCn4ccnc4)c23)cc1,"inconclusive: 18.4 µM [inhibitor, single point]"
24,CCOC(=O)N1CCC(NS(=O)(=O)c2cc3c(cc2Cl)NC(=O)CO3)CC1,inactive
